The values below come from patent US20220340924A1.

Amino acid sequences for entries named in this document (tags omitted). A change or cut given only in a name is not applied to a line headed by its entry. Chains listed by the source or under a name are the forms on record and can include a tag or linker.
UniProt Q39026: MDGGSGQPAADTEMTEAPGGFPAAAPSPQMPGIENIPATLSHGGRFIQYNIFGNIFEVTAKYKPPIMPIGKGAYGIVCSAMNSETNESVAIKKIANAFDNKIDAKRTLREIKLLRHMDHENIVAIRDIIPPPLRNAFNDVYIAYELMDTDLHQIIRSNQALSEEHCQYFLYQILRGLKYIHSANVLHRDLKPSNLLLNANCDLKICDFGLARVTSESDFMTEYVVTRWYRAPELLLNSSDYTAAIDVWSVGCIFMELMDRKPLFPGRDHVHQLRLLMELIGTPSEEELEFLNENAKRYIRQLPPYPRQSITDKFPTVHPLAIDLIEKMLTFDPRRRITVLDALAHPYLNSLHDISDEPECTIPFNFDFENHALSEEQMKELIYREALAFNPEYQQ
CAMPK6 BiFC construct (CAMPK6 fused to a split fluorescent protein fragment) (Q39026, form named): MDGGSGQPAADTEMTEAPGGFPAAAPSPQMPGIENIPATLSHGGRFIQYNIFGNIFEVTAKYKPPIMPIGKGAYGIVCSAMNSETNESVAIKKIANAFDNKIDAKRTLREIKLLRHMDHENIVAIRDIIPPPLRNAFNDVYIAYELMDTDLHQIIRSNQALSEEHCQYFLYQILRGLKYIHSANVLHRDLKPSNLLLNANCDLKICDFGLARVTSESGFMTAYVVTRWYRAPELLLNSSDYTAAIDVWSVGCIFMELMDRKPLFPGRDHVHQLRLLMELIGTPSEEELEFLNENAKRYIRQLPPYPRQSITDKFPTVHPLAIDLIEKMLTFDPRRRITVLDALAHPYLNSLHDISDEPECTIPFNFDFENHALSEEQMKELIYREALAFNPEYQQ
UniProt Q9LXV2: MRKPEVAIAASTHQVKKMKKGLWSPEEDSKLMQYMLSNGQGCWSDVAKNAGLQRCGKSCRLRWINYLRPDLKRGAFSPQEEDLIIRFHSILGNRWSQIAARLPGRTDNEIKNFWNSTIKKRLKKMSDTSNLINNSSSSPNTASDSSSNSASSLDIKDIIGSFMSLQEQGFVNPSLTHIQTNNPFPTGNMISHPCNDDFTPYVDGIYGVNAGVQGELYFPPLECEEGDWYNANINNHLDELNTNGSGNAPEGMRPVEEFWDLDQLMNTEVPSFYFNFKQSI

Experiment [1] deals with CAMPK6 BiFC construct (CAMPK6 fused to a split fluorescent protein fragment) (UniProt Q39026). The experiment can be described thus: BiFC in Arabidopsis mesophyll protoplasts.
For experiment [2] the target is unchanged. The experiment can be described thus: BiFC in Arabidopsis mesophyll protoplasts with MG-132.

No constants are given. Whether binding was seen depends on the method and setting. Some entries that bind do so weakly or less than the wild type.

For “MYB46 BiFC construct (MYB46 fused to a split fluorescent protein fragment) (from UniProt Q9LXV2 1-280)”, the binding entry in experiment [1] and in experiment [2] was “binds” in each case.
